PubChem BioAssay AID1224830 | NIAID – 2016

Screen: 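Genes whose knock-down alters the TNF-alpha reporter response to LPS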 (primary screen)
Cells: human THP-1 monocytic leukaemia cells, TNF dual-luciferase reporter clone, PMA-differentiated to macrophage-like cells
Reagents: siRNA pool against human genes, 50 nM
Timing: LPS for 4 h, given about 3 days after siRNA transfection
Challenge: bacterial LPS (TLR4 ligand), 10 ng/ml
Read-out: 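Ratio of firefly to renilla light, scaled to the plate median and expressed as a robust z-score per replicate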
Scale: TNF reporter robust z-score: higher = stronger TNF reporter response to LPS
Hit rule: 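Each well counts as active if its z-score is over 2.8 or under -1.5; controls are left without a call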
The deposit covers about 18,000 reagents; this is an unselected part. Of all reagents, about 2,900 (16%) were called active. 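Calls are made per well; low scores hint the gene aids the LPS response, high scores that it dampens it.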 Repeated entries: four replicate wells of each siRNA pool. No sequences are given here.

Gene | TNF reporter robust z-score | activity call
DUSP10 | -1.77 | active
DUSP10 | -0.89 | inactive
DUSP10 | -1.51 | active
DUSP10 | -0.52 | inactive
CCDC117 | -0.7 | inactive
CCDC117 | 0.12 | inactive
CCDC117 | -0.39 | inactive
CCDC117 | -0.52 | inactive
CCDC181 | 0.32 | inactive
CCDC181 | 0.92 | inactive
CCDC181 | 2.02 | inactive
CCDC181 | 1.58 | inactive
APC | 0.19 | inactive
APC | 0.39 | inactive
APC | 0.18 | inactive
APC | 0.11 | inactive
LAYN | -0.59 | inactive
LAYN | -0.01 | inactive
LAYN | -1.18 | inactive
LAYN | 0.15 | inactive
RNF125 | -0.91 | inactive
RNF125 | -0.86 | inactive
RNF125 | 0.11 | inactive
RNF125 | -0.53 | inactive
COL1A1 | -1.19 | inactive
COL1A1 | -0.93 | inactive
COL1A1 | 0.08 | inactive
COL1A1 | -0.26 | inactive
OR4C12 | -0.38 | inactive
OR4C12 | 0.39 | inactive
OR4C12 | -0.02 | inactive
OR4C12 | 0 | inactive
GRHPR | 1.64 | inactive
GRHPR | 2.03 | inactive
GRHPR | 2.95 | active
GRHPR | 1.88 | inactive
BTG1 | 0.98 | inactive
BTG1 | 4.14 | active
BTG1 | 3.12 | active
BTG1 | 3.93 | active
ZNF138 | 0.58 | inactive
ZNF138 | -0.45 | inactive
ZNF138 | 0.92 | inactive
ZNF138 | 0.62 | inactive
RUVBL2 | 1.08 | inactive
RUVBL2 | 0.95 | inactive
RUVBL2 | -0.89 | inactive
RUVBL2 | 0.3 | inactive
EGF | 0.21 | inactive
EGF | -0.5 | inactive
EGF | 0.53 | inactive
EGF | -0.02 | inactive
HMGN2 | -1.21 | inactive
HMGN2 | -1.64 | active
HMGN2 | -1.56 | active
HMGN2 | -1.74 | active
DELE1 | -0.85 | inactive
DELE1 | -1 | inactive
DELE1 | -0.01 | inactive
DELE1 | -0.73 | inactive
B4GALT2 | 0.45 | inactive
B4GALT2 | 1.16 | inactive
B4GALT2 | -0.04 | inactive
B4GALT2 | -0.3 | inactive
TBXT | -1.39 | inactive
TBXT | -0.9 | inactive
TBXT | -1.56 | active
TBXT | -1.69 | active
ZNF333 | -0.07 | inactive
ZNF333 | 1.45 | inactive
ZNF333 | 1.59 | inactive
SLC2A7 | 0.58 | inactive
SLC2A7 | -0.21 | inactive
SLC2A7 | -0.59 | inactive
SLC2A7 | -0.91 | inactive
RNF126 | -0.71 | inactive
RNF126 | -0.36 | inactive
RNF126 | -1.54 | active
RNF126 | 1.47 | inactive
MRPS11 | 0.06 | inactive
MRPS11 | 0.27 | inactive
MRPS11 | 1.24 | inactive
MRPS11 | 0.77 | inactive
TMEM121 | -0.09 | inactive
TMEM121 | 0.22 | inactive
TMEM121 | -0.45 | inactive
TMEM121 | -1.04 | inactive

The list goes on, starting with the last 11 of the part before.
Gene | TNF reporter robust z-score | activity call
RNF126 | -0.36 | inactive
RNF126 | -1.54 | active
RNF126 | 1.47 | inactive
MRPS11 | 0.06 | inactive
MRPS11 | 0.27 | inactive
MRPS11 | 1.24 | inactive
MRPS11 | 0.77 | inactive
TMEM121 | -0.09 | inactive
TMEM121 | 0.22 | inactive
TMEM121 | -0.45 | inactive
TMEM121 | -1.04 | inactive
PYY | -0.16 | inactive
PYY | 0.08 | inactive
PYY | 0.85 | inactive
PYY | 1.56 | inactive
PTHLH | 0.65 | inactive
PTHLH | -0.45 | inactive
PTHLH | 3.98 | active
PTHLH | 2.24 | inactive
DDX41 | -1.32 | inactive
DDX41 | -1.36 | inactive
DDX41 | -1.21 | inactive
DDX41 | -0.92 | inactive
PLPPR1 | -0.27 | inactive
PLPPR1 | 0.54 | inactive
PLPPR1 | -0.41 | inactive
PLPPR1 | -0.81 | inactive
EBNA1BP2 | 1.8 | inactive
EBNA1BP2 | 1.28 | inactive
EBNA1BP2 | 0.63 | inactive
EBNA1BP2 | 1.52 | inactive
CXXC4 | -0.25 | inactive
CXXC4 | -0.38 | inactive
CXXC4 | -0.78 | inactive
CXXC4 | -0.14 | inactive
OGFOD3 | -0.32 | inactive
OGFOD3 | 0.56 | inactive
OGFOD3 | -0.03 | inactive
OGFOD3 | 0.02 | inactive
SPECC1L | 3.28 | active
SPECC1L | 3.69 | active
SPECC1L | 0.48 | inactive
SPECC1L | 2.95 | active
FAM167B | 2.56 | inactive
FAM167B | 0.13 | inactive
FAM167B | 0.66 | inactive
FAM167B | -0.86 | inactive
LY6E | -0.93 | inactive
LY6E | -0.34 | inactive
LY6E | -0.39 | inactive
LY6E | -0.42 | inactive
MR1 | -1.54 | active
MR1 | -1.37 | inactive
MR1 | -1.73 | active
MR1 | -1.53 | active
CD1D | 0.45 | inactive
CD1D | 1.74 | inactive
CD1D | 1.35 | inactive
CD1D | -0.08 | inactive
PARVG | -0.18 | inactive
PARVG | 0.36 | inactive
PARVG | 0.8 | inactive
PARVG | 0.52 | inactive
PASK | -1.03 | inactive
PASK | 0.16 | inactive
PASK | -0.2 | inactive
PASK | 0.75 | inactive
